We go through nine substances from article PMC11653668.

Protein sequences, listed by entry. Tags and fused reporters are not part of them. Lines headed by an entry give the natural chain unless they say otherwise; changes in a name come on top. Residues count along the entry.
UniProt Q921F2: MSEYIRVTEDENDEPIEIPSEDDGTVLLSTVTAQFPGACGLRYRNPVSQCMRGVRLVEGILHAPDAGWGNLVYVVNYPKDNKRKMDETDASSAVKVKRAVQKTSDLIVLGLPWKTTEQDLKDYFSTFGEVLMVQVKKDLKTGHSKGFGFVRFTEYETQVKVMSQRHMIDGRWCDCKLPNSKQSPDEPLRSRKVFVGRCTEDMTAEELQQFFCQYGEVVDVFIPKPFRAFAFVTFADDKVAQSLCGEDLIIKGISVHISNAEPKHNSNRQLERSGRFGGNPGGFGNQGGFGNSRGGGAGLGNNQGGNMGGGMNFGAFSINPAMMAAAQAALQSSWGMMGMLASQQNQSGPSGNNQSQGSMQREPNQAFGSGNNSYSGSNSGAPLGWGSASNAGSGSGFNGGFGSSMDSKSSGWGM
UniProt Q15366, residues 13-365: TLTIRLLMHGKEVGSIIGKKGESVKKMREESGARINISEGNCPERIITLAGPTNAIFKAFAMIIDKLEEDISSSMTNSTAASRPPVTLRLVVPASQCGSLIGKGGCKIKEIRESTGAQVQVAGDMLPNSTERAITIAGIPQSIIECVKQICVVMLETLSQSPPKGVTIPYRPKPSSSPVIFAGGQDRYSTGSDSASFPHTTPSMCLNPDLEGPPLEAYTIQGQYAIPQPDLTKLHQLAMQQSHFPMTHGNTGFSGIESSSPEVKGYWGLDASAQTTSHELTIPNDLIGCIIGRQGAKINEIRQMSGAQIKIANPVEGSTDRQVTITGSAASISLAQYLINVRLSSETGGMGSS
UniProt Q15365: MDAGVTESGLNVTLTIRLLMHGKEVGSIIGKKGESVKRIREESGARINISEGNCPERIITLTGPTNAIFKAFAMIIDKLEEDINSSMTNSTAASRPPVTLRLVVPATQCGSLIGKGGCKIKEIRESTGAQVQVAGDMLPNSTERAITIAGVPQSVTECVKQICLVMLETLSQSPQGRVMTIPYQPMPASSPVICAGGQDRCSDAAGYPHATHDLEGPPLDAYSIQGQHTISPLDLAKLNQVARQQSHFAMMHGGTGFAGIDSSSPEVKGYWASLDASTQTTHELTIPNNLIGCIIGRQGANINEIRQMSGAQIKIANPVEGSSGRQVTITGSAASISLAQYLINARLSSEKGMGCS
UniProt P60335: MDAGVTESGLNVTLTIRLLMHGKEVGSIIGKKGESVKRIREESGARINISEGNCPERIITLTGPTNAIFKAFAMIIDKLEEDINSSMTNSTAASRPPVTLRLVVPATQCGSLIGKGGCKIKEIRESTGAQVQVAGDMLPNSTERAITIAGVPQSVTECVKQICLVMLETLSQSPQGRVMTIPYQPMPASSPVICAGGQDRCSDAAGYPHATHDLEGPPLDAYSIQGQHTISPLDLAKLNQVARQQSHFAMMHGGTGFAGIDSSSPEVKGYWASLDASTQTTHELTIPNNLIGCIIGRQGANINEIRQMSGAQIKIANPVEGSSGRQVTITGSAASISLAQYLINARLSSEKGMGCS
UniProt Q61990: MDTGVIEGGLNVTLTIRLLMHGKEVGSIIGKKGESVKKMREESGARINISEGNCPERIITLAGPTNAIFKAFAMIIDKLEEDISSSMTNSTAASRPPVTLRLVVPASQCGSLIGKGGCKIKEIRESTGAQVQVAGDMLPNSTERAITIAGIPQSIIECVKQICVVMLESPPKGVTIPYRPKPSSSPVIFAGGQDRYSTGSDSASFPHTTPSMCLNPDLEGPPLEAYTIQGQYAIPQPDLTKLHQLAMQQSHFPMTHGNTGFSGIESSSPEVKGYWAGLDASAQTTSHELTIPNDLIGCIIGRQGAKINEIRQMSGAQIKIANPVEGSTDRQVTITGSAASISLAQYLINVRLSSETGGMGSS

Results are given in words; binding and its absence hold for the method and conditions named. Binding seen in cells or lysates may run through a third protein. Some results given as binding are weak or reduced against the parent protein; the word gives no strength. For some of these results: Sequences can lack the tags named with a protein.

The target of assay [1] is T1, FLAG-tagged NAT10 (human) (UniProt Q9H0A0).
T1 sequence: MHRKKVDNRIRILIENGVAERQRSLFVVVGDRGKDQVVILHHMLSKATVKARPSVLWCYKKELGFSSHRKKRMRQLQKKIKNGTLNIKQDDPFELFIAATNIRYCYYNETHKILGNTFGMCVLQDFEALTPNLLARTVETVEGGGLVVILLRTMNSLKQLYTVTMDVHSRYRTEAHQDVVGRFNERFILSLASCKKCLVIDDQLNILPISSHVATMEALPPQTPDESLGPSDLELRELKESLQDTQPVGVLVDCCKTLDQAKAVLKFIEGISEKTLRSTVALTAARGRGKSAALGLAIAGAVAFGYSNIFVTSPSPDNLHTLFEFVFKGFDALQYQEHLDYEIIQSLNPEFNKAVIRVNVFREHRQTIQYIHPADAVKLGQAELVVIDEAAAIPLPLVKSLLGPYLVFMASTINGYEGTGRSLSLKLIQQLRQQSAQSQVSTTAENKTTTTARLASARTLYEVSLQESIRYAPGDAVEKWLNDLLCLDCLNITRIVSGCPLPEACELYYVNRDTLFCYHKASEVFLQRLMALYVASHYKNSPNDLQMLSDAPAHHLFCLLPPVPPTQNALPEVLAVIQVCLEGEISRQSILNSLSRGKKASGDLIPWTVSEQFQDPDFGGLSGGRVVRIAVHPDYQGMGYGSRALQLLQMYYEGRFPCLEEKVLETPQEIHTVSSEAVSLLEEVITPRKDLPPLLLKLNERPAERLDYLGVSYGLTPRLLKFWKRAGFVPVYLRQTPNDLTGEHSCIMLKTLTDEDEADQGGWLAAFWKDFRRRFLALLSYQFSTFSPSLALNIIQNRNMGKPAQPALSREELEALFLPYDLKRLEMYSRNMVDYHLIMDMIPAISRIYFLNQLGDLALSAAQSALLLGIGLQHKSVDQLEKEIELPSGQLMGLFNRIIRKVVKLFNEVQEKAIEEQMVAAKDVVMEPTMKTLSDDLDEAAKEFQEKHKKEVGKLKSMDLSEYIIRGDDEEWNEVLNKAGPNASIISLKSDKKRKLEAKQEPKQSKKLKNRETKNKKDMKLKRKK
The assay can be described thus: co-IP; HEK293T cells transfected for 48 h; lysis buffer 50 mM Tris-HCl pH 7.5, 150 mM NaCl, 1 mM EDTA, 1% Triton X-100, 1 mM PMSF; anti-FLAG affinity gel, 2 h at 4 °C; western blot; with and without RNase A treatment (Figure 1C). On the technique in general: A western blot detects proteins with antibodies after separation by electrophoresis.

In assay [2] the target is TDP43 (as used with the truncated PCBP1 constructs, Figure S2E) (human) (UniProt Q13148). Briefly: co-IP; N-terminally truncated PCBP1 constructs tested with TDP43 (Figure S2E); bait and tags not given.
Assay [3] addresses T2, NAT10 (endogenous, HEK293T) (human (endogenous in HEK293T)) (UniProt Q9H0A0).
T2 sequence: T1 sequence
The assay can be described thus: co-IP; endogenous NAT10 precipitated with anti-NAT10 antibody in the RIP procedure from 293T cells of the siNC, siPCBP1/2 and siTDP43 groups; western blot of the precipitate.

The target in assay [4] is TDP43 (endogenous, mouse testis) (mouse (endogenous in testis)) (UniProt Q921F2). Briefly: co-IP; endogenous IP from mouse testis lysate with anti-TDP43 antibody on Protein A Sepharose, 4 h at 4 °C; western blot.
In assay [5] the target is TDP43 (endogenous, HEK293T) (human (endogenous in HEK293T)) (UniProt Q13148). The assay can be described thus: co-IP; endogenous IP from HEK293T lysate with anti-TDP43 antibody on Protein A Sepharose, 4 h at 4 °C; rabbit isotype IgG as control; western blot.

As for “PCBP2^13–365 (from UniProt Q15366 13-365) (domain or fragment)”, the binding entry in assay [1] was “binds”.
On to “PCBP1^13–356 (from UniProt Q15365 13-356) (domain or fragment)”, for which the binding result in assay [2] and in assay [1] was “binds” throughout.
Regarding “HA-tagged TDP43 (from UniProt Q13148 1-414)”, in assay [1], the binding entry is listed as “binds”.
For “PCBP1^76–356 (from UniProt Q15365 76-356) (domain or fragment)”, the binding entry in assay [2] is listed as “binds”.
Take “TDP43 (endogenous, HEK293T) (from UniProt Q13148 1-414)”: in assay [3], the binding result is reported as “binds”.
Take “PCBP1 (endogenous, mouse testis) (from UniProt P60335 1-356)”: the binding result in assay [4] is “binds”.
With “PCBP1 (endogenous, HEK293T) (from UniProt Q15365 1-356)”, the binding result in assay [5] is on record as “binds”.
For “PCBP1^1–96 (from UniProt Q15365 1-96) (domain or fragment)”, the binding entry in assay [1] is reported as “binds”.
For “PCBP2 (endogenous, mouse testis) (from UniProt Q61990 1-362)”, in assay [4], the binding result is given as “binds”.
